Source: article doi:10.1101/2021.08.05.455219

The chains behind the UniProt entries cited, without tags or fusion partners.
UniProt Q91YI4: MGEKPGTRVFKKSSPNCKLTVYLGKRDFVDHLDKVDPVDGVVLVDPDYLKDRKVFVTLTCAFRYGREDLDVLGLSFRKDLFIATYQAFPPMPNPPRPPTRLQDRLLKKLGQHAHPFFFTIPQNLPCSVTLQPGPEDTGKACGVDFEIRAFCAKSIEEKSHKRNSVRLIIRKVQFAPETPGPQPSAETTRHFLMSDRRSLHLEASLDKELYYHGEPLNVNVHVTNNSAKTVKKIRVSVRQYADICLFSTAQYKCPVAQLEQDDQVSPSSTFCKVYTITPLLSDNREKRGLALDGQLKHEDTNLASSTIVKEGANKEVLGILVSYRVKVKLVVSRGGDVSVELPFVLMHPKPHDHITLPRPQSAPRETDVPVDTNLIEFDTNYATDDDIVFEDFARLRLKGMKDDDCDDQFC
UniProt P20357: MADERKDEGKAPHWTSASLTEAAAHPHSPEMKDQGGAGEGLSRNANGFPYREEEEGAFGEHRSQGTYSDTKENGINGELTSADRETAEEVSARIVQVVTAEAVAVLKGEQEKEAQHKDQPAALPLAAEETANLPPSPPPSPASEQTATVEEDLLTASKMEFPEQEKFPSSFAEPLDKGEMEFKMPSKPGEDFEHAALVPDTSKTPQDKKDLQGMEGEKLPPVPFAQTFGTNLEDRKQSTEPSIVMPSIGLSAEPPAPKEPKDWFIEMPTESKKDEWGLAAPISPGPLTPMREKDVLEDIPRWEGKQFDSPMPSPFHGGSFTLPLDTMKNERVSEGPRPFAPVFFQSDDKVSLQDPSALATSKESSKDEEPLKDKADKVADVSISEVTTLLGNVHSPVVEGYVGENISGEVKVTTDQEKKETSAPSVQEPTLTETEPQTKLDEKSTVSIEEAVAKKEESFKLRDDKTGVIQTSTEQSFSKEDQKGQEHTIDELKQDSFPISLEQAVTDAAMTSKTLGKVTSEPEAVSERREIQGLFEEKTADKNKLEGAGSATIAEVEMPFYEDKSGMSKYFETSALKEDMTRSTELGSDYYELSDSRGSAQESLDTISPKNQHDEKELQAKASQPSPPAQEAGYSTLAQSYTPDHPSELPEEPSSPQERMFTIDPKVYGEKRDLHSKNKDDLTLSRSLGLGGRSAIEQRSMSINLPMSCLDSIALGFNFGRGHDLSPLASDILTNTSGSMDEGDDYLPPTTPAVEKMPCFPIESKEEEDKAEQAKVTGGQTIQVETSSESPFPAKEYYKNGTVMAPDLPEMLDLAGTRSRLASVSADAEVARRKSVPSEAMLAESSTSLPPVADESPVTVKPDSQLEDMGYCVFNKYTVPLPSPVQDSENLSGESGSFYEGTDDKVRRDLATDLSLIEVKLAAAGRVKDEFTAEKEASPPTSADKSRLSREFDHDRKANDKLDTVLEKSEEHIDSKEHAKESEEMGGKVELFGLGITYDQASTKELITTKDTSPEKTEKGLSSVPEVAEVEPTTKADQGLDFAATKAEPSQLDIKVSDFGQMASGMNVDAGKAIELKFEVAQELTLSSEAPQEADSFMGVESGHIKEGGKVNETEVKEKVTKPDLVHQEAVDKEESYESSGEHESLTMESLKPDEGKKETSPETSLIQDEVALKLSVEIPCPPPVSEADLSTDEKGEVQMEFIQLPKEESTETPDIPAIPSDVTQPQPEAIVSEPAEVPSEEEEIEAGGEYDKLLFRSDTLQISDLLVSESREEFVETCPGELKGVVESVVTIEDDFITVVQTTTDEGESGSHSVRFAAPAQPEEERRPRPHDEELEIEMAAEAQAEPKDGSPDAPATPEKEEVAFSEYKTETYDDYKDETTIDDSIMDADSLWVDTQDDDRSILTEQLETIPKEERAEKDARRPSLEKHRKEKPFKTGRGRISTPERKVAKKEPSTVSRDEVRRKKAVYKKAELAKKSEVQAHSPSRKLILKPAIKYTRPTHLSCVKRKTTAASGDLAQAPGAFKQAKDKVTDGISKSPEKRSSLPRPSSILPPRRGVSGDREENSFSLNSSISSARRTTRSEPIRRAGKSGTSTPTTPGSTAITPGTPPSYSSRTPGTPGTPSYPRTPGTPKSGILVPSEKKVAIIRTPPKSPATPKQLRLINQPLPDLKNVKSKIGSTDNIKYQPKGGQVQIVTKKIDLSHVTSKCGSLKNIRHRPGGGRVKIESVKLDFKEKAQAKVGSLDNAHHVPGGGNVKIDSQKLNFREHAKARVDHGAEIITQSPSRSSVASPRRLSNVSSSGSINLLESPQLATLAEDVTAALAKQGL
UniProt P63094: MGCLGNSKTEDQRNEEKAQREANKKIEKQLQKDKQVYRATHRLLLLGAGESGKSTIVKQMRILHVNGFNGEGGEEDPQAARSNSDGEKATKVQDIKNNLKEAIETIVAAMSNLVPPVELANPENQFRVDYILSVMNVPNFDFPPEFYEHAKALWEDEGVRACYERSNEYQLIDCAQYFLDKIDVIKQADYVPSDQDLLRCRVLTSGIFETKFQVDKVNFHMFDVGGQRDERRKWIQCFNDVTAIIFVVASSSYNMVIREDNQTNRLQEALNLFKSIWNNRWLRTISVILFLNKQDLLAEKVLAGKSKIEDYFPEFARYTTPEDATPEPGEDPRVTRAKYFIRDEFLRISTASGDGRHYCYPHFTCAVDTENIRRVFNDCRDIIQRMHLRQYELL

Key:
[1] = target: T1, Brsk2, bait of the co-immunoprecipitation analysed by mass spectrometry in MIN6 cells (UniProt Q8IWQ3); assay: affinity purification with mass spectrometry
T1 sequence: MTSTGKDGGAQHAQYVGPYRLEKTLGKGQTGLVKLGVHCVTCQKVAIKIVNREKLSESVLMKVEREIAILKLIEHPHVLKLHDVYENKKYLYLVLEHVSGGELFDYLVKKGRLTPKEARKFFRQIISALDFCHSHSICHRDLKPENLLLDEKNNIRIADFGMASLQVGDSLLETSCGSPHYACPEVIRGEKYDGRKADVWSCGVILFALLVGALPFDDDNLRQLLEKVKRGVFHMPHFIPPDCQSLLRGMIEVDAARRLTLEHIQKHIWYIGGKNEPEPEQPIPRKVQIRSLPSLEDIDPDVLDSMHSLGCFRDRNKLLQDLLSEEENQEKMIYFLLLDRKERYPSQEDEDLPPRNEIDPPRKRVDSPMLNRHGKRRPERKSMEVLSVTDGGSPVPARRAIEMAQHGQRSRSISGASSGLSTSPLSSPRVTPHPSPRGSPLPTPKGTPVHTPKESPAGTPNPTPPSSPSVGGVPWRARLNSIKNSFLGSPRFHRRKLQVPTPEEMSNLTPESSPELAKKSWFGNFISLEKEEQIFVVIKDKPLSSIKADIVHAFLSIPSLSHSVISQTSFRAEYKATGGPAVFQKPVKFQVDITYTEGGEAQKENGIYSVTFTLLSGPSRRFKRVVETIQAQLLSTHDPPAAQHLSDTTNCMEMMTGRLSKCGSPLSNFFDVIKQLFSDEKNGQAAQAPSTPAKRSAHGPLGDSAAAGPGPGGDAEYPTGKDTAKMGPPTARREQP

[2] = target: T1, Brsk2, bait of the co-immunoprecipitation analysed by mass spectrometry in MIN6 cells; assay: affinity purification with mass spectrometry; remark: listed apart in the source

Q: For “Arrb2 of MIN6 cells (from UniProt Q91YI4 1-410)”, which binding [1] is on record?
A: Its binding is “binds”.

Q: How did the binding [1] turn out when “Map2 of MIN6 cells (from UniProt P20357 1-1828)” was run?
A: The binding was “binds”.

Q: For “Gnas of MIN6 cells (from UniProt P63094 1-394)”, which binding [1] is on record?
A: Its binding is “binds”.

B1: phospholipase A2 activating protein (Plaa) of MIN6 cells (protein, UniProt P27612 1-794)
chain: MASGASRYRLSCSLPGHELDVRGLVCCLYPPGAFVSVSRDRTTRLWAPDSPNRGFTEMHCMSGHSNFVSCVCIIPSSDIYPHGLIATGGNDHNICIFSLDSPMPLYILKGHKDTVCSLSSGKFGTLLSGSWDTTAKVWLNDKCMMTLQGHTAAVWAVKILPEQGLMLTGSADKTIKLWKAGRCERTFLGHEDCVRGLAILSETEFLSCANDASIRRWQITGECLEVYFGHTNYIYSISVFPNSKDFVTTAEDRSLRIWKHGECAQTIRLPAQSIWCCCVLENGDIVVGASDGIIRVFTESEERTASAEEIKAFERELSQATIDSKTGDLGDINAEQLPGREHLSEPGTREGQTRLIRDGERVEAYQWSVSDGRWIKIGDVVGSSGANQQTSGKVLYEGKEFDYVFSIDVNEGGPSYKLPYNVSDDPWLVAYNFLQKNDLNPMFLDQVAKFIIDNTKGQTLGLGNTSFSDPFTGGGRYVPGTSGPSNTVQTADPFTGAGRYMPGSAGMDTTMTGVDPFTGNSAYRSAASKTVNIYFPKKEALTFDQANPTQILGKLKELNGTAPEEKKLTEDDLVLLEKILSLICNNSSEKPTAQQLQILWKAINWPEDIVFPALDILRLSIKHPNVNENFCNEKGDQFSSHLINLLNPKGKPANQLLALRTFCNCFVSQAGQKLMMSQRESLMSHAIELKSGSNKNIHIALATLTLNYSVCFHKDHNIEGKAQCLSVISTILEVVQDLEATFRLLVALGTLISDDSNAIQLAKSLGVDSQIKKYVSVSEPAKVSECCRLVLHLL
Q: For B1, which binding [2] is on record?
A: Its binding is “binds”.

Where two headings read alike, the source gives them in different places. No constants are given. Whether binding was seen depends on the method and setting. Binding seen in cells or lysates may run through a third protein. A yes stands for co-enrichment or nearness to the bait. Other partners may have been found.
